We go through one substance from PMC6891902.

The chains behind the UniProt entries cited, without tags or fusion partners.
UniProt Q9NZM4: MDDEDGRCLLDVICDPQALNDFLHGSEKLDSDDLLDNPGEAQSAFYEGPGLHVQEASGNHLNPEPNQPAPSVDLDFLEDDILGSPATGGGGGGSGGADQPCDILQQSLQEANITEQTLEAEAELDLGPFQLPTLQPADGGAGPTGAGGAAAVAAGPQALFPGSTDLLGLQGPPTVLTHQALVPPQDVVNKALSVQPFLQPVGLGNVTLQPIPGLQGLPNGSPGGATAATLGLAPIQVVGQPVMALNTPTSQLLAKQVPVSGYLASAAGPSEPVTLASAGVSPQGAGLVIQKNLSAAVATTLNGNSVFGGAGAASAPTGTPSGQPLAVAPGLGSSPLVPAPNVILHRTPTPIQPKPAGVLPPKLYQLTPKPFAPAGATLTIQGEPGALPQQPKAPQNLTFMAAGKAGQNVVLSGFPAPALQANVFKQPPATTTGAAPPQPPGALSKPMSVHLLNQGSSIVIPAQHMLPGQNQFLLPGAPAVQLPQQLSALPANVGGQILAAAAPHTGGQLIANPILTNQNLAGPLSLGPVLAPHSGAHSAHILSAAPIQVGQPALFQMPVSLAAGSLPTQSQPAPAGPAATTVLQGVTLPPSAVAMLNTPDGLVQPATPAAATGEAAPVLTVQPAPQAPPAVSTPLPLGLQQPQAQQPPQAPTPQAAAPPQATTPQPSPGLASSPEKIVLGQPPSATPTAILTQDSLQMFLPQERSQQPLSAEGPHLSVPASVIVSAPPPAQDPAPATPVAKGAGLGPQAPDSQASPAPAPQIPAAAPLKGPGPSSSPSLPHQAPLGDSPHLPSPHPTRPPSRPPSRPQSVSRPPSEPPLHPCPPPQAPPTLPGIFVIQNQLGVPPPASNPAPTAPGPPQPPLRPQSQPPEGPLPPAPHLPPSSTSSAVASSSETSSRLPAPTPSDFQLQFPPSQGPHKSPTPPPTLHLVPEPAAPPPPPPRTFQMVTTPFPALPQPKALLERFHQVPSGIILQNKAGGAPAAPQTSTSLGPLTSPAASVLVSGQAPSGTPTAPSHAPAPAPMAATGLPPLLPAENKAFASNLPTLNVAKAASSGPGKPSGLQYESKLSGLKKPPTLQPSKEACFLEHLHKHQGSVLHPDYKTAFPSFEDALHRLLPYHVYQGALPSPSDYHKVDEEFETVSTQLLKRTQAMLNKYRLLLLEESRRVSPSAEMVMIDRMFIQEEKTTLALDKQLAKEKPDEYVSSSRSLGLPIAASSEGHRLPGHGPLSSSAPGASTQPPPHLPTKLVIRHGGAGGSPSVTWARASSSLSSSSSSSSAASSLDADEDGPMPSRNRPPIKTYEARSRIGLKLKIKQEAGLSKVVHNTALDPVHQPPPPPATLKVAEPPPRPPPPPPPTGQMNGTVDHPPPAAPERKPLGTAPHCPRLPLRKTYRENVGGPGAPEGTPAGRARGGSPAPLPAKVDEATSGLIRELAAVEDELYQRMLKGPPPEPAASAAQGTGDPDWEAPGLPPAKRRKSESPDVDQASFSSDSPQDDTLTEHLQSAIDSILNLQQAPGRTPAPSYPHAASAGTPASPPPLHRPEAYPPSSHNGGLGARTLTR
UniProt P50750: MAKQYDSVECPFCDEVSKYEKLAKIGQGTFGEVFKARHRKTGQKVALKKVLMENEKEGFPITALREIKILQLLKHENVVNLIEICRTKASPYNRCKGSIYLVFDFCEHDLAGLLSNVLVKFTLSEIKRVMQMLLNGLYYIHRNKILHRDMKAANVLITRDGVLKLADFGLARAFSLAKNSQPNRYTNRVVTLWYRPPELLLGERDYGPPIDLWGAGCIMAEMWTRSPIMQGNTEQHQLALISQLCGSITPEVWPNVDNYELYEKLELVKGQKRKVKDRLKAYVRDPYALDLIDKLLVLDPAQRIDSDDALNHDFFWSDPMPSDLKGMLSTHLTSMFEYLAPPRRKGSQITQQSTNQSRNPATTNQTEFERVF

No constants are given. Whether binding was seen depends on the method and setting. In cells and extracts the contact can be indirect. Some binding calls cover weakened binding; strength is not graded here.

The target of the experiment is Flag-tagged GLTSCR1^WT (glioma tumor suppressor candidate region gene 1, wild type) (human) (UniProt Q9NZM4). The experiment can be described thus: co-IP; Flag-tagged GLTSCR1 (wild type, frameshift or deletion constructs) coexpressed with HA-tagged BRD4 (full length, deletion or mutation constructs) in HEK293; precipitated with Anti-FLAG M2 Magnetic Beads overnight at 4 °C; lysis buffer pH 8.0, 20 mM Tris-HCl, 150 mM NaCl, 0.5% NP-40; immunoblot; cells treated with TSA (20 x 10^-6 M, 12 h) in Figure 5H. A general note: A western blot detects proteins with antibodies after separation by electrophoresis.

“CDK9 (in HEK293 lysate) (from UniProt P50750 1-372)”: the binding entry is recorded as “binds”.
